Measurements as given in paper PMC7819943, “Rice protein-binding microarrays: a tool to detect cis-acting elements near promoter regions in rice”.
The other results are listed elsewhere or left out.

The chains behind the UniProt entries cited, without tags or fusion partners.
UniProt Q0JBA9, entry or part of it: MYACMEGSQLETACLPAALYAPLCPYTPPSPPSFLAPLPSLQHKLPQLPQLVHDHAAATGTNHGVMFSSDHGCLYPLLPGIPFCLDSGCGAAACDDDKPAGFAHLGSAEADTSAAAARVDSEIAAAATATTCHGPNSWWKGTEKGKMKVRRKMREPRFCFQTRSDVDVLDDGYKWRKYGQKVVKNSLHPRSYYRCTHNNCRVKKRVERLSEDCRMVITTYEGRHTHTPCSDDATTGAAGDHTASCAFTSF

Biological target: OsWRKY34 (Oryza sativa, UniProt Q0JBA9 1-250)
Assay: protein-binding microarray (RPBM); PBS, 2% BSA, 51.3 ng/ul salmon testes DNA, 50 uM zinc acetate, 200 nM TF, 25 C, 1 h; high values mean tight binding
Conditions: protein: recombinant; tags: N-terminal polyhistidine and DsRed monomer fusion (pET32a); label: CyDye5-dUTP incorporated in the synthesized complementary strand; 3' TTTTT single-stranded linker to array surface; dsDNA, one strand shown
In short: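 In PBS with 2% BSA, salmon testes DNA and 50 µM zinc acetate, 200 nM protein was incubated on a custom Agilent array at 25 °C for 1 h and then washed off. The array had been made double-stranded by primer extension with Cy5-dUTP and blocked with 2% BSA. The proteins were transcription factors fused N-terminally to polyhistidine and DsRed, expressed in E. coli BL21-CodonPlus and purified on Ni–NTA. The binding signal is per-feature fluorescence intensity (arbitrary units) from an Axon 4000B scanner.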

Sequence | binding signal
GAGGGAGTATGGAATAGTAGTGTTTGCATTGGAAGAGTAGCGGAGTCACCTAGTGCAG | 8070 fluorescence intensity (a.u.)
GTGGGATGACGGGACGTGGGCTGGGGTTGGCCTGGGCTGACGGAGTCACCTAGTGCAG | 9770 fluorescence intensity (a.u.)
TTCCATGTATTTATGTATTTTTGTACCTTTATAAATTATCCGGAGTCACCTAGTGCAG | 8310 fluorescence intensity (a.u.)
AGCTTTCGGGTTAATTTGGTTATTACATAGGAGTATATTTCGGAGTCACCTAGTGCAG | 9520 fluorescence intensity (a.u.)
TTCGTGTGAAATTTCTCAAACTTTGTTTTTTGTTGTACGTCGGAGTCACCTAGTGCAG | 11700 fluorescence intensity (a.u.)
CTAGGTGTTTTTTTTTCTTCCTTCTTTTCGTTTTTCCTCGCGGAGTCACCTAGTGCAG | 14300 fluorescence intensity (a.u.)
GTGCGTATCCCCGCGAAACGCCTCGTCGCGTTCATATTTGCGGAGTCACCTAGTGCAG | 8930 fluorescence intensity (a.u.)
TCTTTGTACTCTGTGGTTTTCCATATCAATATCATATAAACGGAGTCACCTAGTGCAG | 8060 fluorescence intensity (a.u.)
TTATGGTGTTCTTTATATATCATGTTTTGGATACACTCCACGGAGTCACCTAGTGCAG | 8900 fluorescence intensity (a.u.)
GTTATTGTTGACCTTTTCTTTTGTTTTCGGTGTTTTATGTCGGAGTCACCTAGTGCAG | 9830 fluorescence intensity (a.u.)
GTATAACGCCGTTGACTTTTTAACCAATGTTTGACCATTCCGGAGTCACCTAGTGCAG | 40400 fluorescence intensity (a.u.)
CCTTTTTCACTTTTTTTCTCCTTTTTGTAAATGACACTTTCGGAGTCACCTAGTGCAG | 8150 fluorescence intensity (a.u.)
TGTACTTCTCACCTCCTAATTAACCCTGCACCACCGTAATCGGAGTCACCTAGTGCAG | 9540 fluorescence intensity (a.u.)
TGGCTTACTGGCTCAATGCCTTTGTCTTACCGCACATCCACGGAGTCACCTAGTGCAG | 8790 fluorescence intensity (a.u.)
TCTGTCGTTTCTCTCACTAGTCATTACAAGCTCCAATTAACGGAGTCACCTAGTGCAG | 8330 fluorescence intensity (a.u.)
TCGAGCCTACTAGTATAAATTGTACCTCGTTGTTATGAAGCGGAGTCACCTAGTGCAG | 8250 fluorescence intensity (a.u.)
GCTGTTGGTTTGTGTGGCGAAGAGACGTCAACTTCGCCCTCGGAGTCACCTAGTGCAG | 9840 fluorescence intensity (a.u.)
ACCTGGGTATGTGTAGTGGTGTATCTTTGAATCAATGTGTCGGAGTCACCTAGTGCAG | 9940 fluorescence intensity (a.u.)
CTGGGGTTAGTTCTATGGATATTTGCTACTCCTGTTGATACGGAGTCACCTAGTGCAG | 8220 fluorescence intensity (a.u.)
GGACACGCTGAACCCCACTCCTTCTGTCCCCACATGTCATCGGAGTCACCTAGTGCAG | 8110 fluorescence intensity (a.u.)
CCCTACCACCACCACCAGCACAGAATACTCGCATTAACATCGGAGTCACCTAGTGCAG | 9210 fluorescence intensity (a.u.)

Sequence | binding signal
GGGTTGGTTCCTGCCTCTCGAGTCTCAGCAAGTGTGTCACCGGAGTCACCTAGTGCAG | 11500 fluorescence intensity (a.u.)
ACCATCGATTTAATTTGACTGTTGATCATAATAATATATCCGGAGTCACCTAGTGCAG | 8480 fluorescence intensity (a.u.)
GGCCCATATCTCCGACAGATAGCTAGATAACATCAAATTACGGAGTCACCTAGTGCAG | 8050 fluorescence intensity (a.u.)
CATGACCTCAAGCATCTTTTGTCGATGGACATCCATCTCCCGGAGTCACCTAGTGCAG | 8810 fluorescence intensity (a.u.)
CTCTATTTCAGGGTATAAAGGGTTTGCGTGATGAAATTGCCGGAGTCACCTAGTGCAG | 8190 fluorescence intensity (a.u.)
AGATTGTGGTGGGTGTTGATTGTGGTGATCTTGTCCCCTCCGGAGTCACCTAGTGCAG | 13000 fluorescence intensity (a.u.)
TTAGGGTTGTAACCATGTAATTTTTCGCTACTATATATCACGGAGTCACCTAGTGCAG | 8150 fluorescence intensity (a.u.)
GACTGACTGTTTGACTTATCTTTAGTCAAGGTGTTTTGCGCGGAGTCACCTAGTGCAG | 8040 fluorescence intensity (a.u.)
ACTAAAATTTTGTGTTTTTATCACCTGTTACATCATATTGCGGAGTCACCTAGTGCAG | 8200 fluorescence intensity (a.u.)
TCTCGACCCGCCGGCCTCCTCCCTTGTCCAGCGTCGCCGCCGGAGTCACCTAGTGCAG | 9870 fluorescence intensity (a.u.)
AGAGACCCTTTTCCTTAATTTTGTTTGATCATTCCCTTTCCGGAGTCACCTAGTGCAG | 9130 fluorescence intensity (a.u.)
CTTATTGTAGCCTGATCACCACTATTGGTCCCTGTTGGAACGGAGTCACCTAGTGCAG | 8720 fluorescence intensity (a.u.)
GTTATAATTTTTTCGTGACAACCACTCACCCTTCTCAATACGGAGTCACCTAGTGCAG | 8520 fluorescence intensity (a.u.)
GGCTTCTTTGATATCTTGTTTGCATCTCCCGTGTACTGTACGGAGTCACCTAGTGCAG | 11000 fluorescence intensity (a.u.)
ACGTTGTCGTGGTAGTTGGCATTGATCTCGGAGTTCGGCTCGGAGTCACCTAGTGCAG | 9170 fluorescence intensity (a.u.)
CCCCACGCCACAGCCTCTTATCCCACACGCGGACCAACAGCGGAGTCACCTAGTGCAG | 8860 fluorescence intensity (a.u.)
GGAGTACTGTACTGGTTTAGCCTTTTCAGCTTGTCTGTTTCGGAGTCACCTAGTGCAG | 10900 fluorescence intensity (a.u.)
TGAATCATGACAAATTTGCTTACAATTCGTTGCTGTAGTGCGGAGTCACCTAGTGCAG | 8140 fluorescence intensity (a.u.)
TAGCCGCCACCTTCCGATCGCCCGCATCCGGATCGGTCTCCGGAGTCACCTAGTGCAG | 13000 fluorescence intensity (a.u.)
GGAGGGAGAGGGGTCAGGCTCAATTGCGTCTCCTTCGTATCGGAGTCACCTAGTGCAG | 8200 fluorescence intensity (a.u.)
GCTGCTCGCGGTTTGGCATTGTCTCTCTAGAGTCTAGACTCGGAGTCACCTAGTGCAG | 12600 fluorescence intensity (a.u.)

Sequence | binding signal
GCGCTTACATGGCGGTGTTGATCTAGTCTGTGGTGTTGACCGGAGTCACCTAGTGCAG | 12600 fluorescence intensity (a.u.)
GTTTTGGCTGACGTGGCGCCTACGTGGTTTGTTTGACCTACGGAGTCACCTAGTGCAG | 10200 fluorescence intensity (a.u.)
GGCTACTAGGTTTTCTAACTTCTTTTTATTGGTTAAGATTCGGAGTCACCTAGTGCAG | 9620 fluorescence intensity (a.u.)
ACTCCCTCCGTATTTTAATATATGACGCCGTTGACTTATTCGGAGTCACCTAGTGCAG | 13800 fluorescence intensity (a.u.)
ATATATATATATATATATATATACTCAGACCGTACTTTGTCGGAGTCACCTAGTGCAG | 11400 fluorescence intensity (a.u.)
TCAGATGGAAGTGTGATAGATCGTCGGTGGTGTGGGGAGGCGGAGTCACCTAGTGCAG | 11800 fluorescence intensity (a.u.)
GCCGCCGCCTCCTTCTTCCCCACCGCCGCGGCCGGCCTCTCGGAGTCACCTAGTGCAG | 9040 fluorescence intensity (a.u.)
ACATTCATCGTGTGATCACAGAAACTTCATACTTTGTTGACGGAGTCACCTAGTGCAG | 9880 fluorescence intensity (a.u.)
CCGACTGTGTTATGATCCGGTGCTCTCTGTGTACTGTCAGCGGAGTCACCTAGTGCAG | 9100 fluorescence intensity (a.u.)
TAGGTGTGGTGTGTGGAGAAGCGGTGGACCGACCGACGACCGGAGTCACCTAGTGCAG | 8450 fluorescence intensity (a.u.)
ATCTTACGAAATTTCTTTTCAAGGTTACACTGTTTCCGCTCGGAGTCACCTAGTGCAG | 8990 fluorescence intensity (a.u.)
GATCGTGGGAGGGAGGATTGGCCGGTTGTACTACAGTTGACGGAGTCACCTAGTGCAG | 8660 fluorescence intensity (a.u.)
ACCTCGCGCGCGCAGCTCACGACGCTCGCCCTTGTCGCTTCGGAGTCACCTAGTGCAG | 9130 fluorescence intensity (a.u.)
GAGGTCATTTGTAGATTTGGATGTGTTGCTTTGGGAAATACGGAGTCACCTAGTGCAG | 9280 fluorescence intensity (a.u.)
CTCACAGTCGTCATCGTCGCTACCGCCGCCGCCGCCGCTGCGGAGTCACCTAGTGCAG | 8920 fluorescence intensity (a.u.)
TGTTTGTGCCGCTGGATTATGCCCCGTTAGCTTCTTTAAACGGAGTCACCTAGTGCAG | 11500 fluorescence intensity (a.u.)
GCGCCATGTGTTTTCTAGAGATCGCTCGTGTGGATGCAAGCGGAGTCACCTAGTGCAG | 9070 fluorescence intensity (a.u.)
TGGTCAAACGTTAAAACAGTCATCAGCGTCGTACATTAAACGGAGTCACCTAGTGCAG | 8110 fluorescence intensity (a.u.)
ACCACCAACCTTCGTCTCCGCCGCCTCCGCCTCTCTCCTTCGGAGTCACCTAGTGCAG | 10300 fluorescence intensity (a.u.)
TTTCTTCTGCTGGTCTTGATGGCAACATCCGACCCCTTTCCGGAGTCACCTAGTGCAG | 8250 fluorescence intensity (a.u.)
CATCTTCTTCAACCTGTGATCATCATTCAGTAGTTAAAGCCGGAGTCACCTAGTGCAG | 9170 fluorescence intensity (a.u.)

Reformatted field by field: part of the list above
CTCTATTTCAGGGTATAAAGGGTTTGCGTGATGAAATTGCCGGAGTCACCTAGTGCAG
  binding signal = 8190 fluorescence intensity (a.u.)
AGATTGTGGTGGGTGTTGATTGTGGTGATCTTGTCCCCTCCGGAGTCACCTAGTGCAG
  binding signal = 13000 fluorescence intensity (a.u.)
TTAGGGTTGTAACCATGTAATTTTTCGCTACTATATATCACGGAGTCACCTAGTGCAG
  binding signal = 8150 fluorescence intensity (a.u.)
GACTGACTGTTTGACTTATCTTTAGTCAAGGTGTTTTGCGCGGAGTCACCTAGTGCAG
  binding signal = 8040 fluorescence intensity (a.u.)

(listing goes on)

Sequence | binding signal
TGTATATTGCAATCCTCTGTTTTACACTTCAATTCTTATCCGGAGTCACCTAGTGCAG | 12300 fluorescence intensity (a.u.)
TATTCTCATGCCTTTGACTTTCTAAATCAACCTTTTTTTACGGAGTCACCTAGTGCAG | 10700 fluorescence intensity (a.u.)
TCCATTTCCTCCAGTTTCATTTCTAGTCTCTACCATCTGACGGAGTCACCTAGTGCAG | 13600 fluorescence intensity (a.u.)
TCGATGTCATAAAAAAAGTGTTTTTTTTCCCTTTTCTTTTCGGAGTCACCTAGTGCAG | 9760 fluorescence intensity (a.u.)
GCCGCCACCCACCCACAACCACCGCCGCCTCCGCTCCAGACGGAGTCACCTAGTGCAG | 8810 fluorescence intensity (a.u.)
ACATTACACCCTCTTCTCGTCTCTGGTCCAACCATCCGACCGGAGTCACCTAGTGCAG | 11300 fluorescence intensity (a.u.)
TCCTCCTTGCCTCCTCTTCGCCATTGTCCTAATTCCCATCCGGAGTCACCTAGTGCAG | 10500 fluorescence intensity (a.u.)
TATATGTGGCCACCGTGCTAGTTCTGGGCTGTTTAGTTGGCGGAGTCACCTAGTGCAG | 9370 fluorescence intensity (a.u.)
AATACTCTTATTTTTCTTTATCGAGATACATGCTTACGAACGGAGTCACCTAGTGCAG | 8260 fluorescence intensity (a.u.)
AGAAGTAGAGTTTGTTACCGGTGTGTGTGTGGCGTCACTCCGGAGTCACCTAGTGCAG | 12100 fluorescence intensity (a.u.)
CCCTTGACAGCACAGAGGCAACAGCAAAACACACTCTCATCGGAGTCACCTAGTGCAG | 8580 fluorescence intensity (a.u.)
GGCTGATGAATTTCTCTGGCACCGTGTCGAACAGCTTCTTCGGAGTCACCTAGTGCAG | 8470 fluorescence intensity (a.u.)
CACAAACTTTCGTTTACCCGTGTACCATTCCATCCATGTTCGGAGTCACCTAGTGCAG | 10600 fluorescence intensity (a.u.)
TCATCTCTCCTCTGCCGCCGCGCGCCGCCTTCAATCCTCCCGGAGTCACCTAGTGCAG | 8040 fluorescence intensity (a.u.)
AAAAGTCTCTCATCCTTATGTGATTCCTGAAGTTATTAATCGGAGTCACCTAGTGCAG | 8320 fluorescence intensity (a.u.)
AATCCTCTTTTTCTTTCAGACAATCAAGAGCTAACACTGTCGGAGTCACCTAGTGCAG | 8930 fluorescence intensity (a.u.)
AACTACTCTCACAATTTTTATAGTACATGCATTTTTCCTTCGGAGTCACCTAGTGCAG | 8190 fluorescence intensity (a.u.)
GGGAATATTAGTGGGATGGGGATGAGGAATTGAGGAAGAACGGAGTCACCTAGTGCAG | 13400 fluorescence intensity (a.u.)
ACATCGCACTGTACTGTCCTTGTCCCCTTCTCCAACATCACGGAGTCACCTAGTGCAG | 9030 fluorescence intensity (a.u.)
ACACAACAGCAGAACTTATGTATATGTACGTTTTCTTAAACGGAGTCACCTAGTGCAG | 8320 fluorescence intensity (a.u.)
TAATGTATCCAAATACGTTTTCTTACTTTTCTTTCCTTTCCGGAGTCACCTAGTGCAG | 9330 fluorescence intensity (a.u.)
